Test results: the supplement of paper PMC6445147
Values scatter widely in this assay.

B1: human tRNA-Pro; a variant is named by its letters at N, in order (parent)
chain: GGCTCGTTGGTCTAGNGGTATGATTCTCGCTTAGGGTGCGAGAGGTCCCGGGTTCNNATCCCGGACGAGCCC

Tests used:
[1] = variants of: B1; test: tRNA Pol-III promoter activity, log2 (circRNA frequency / plasmid DNA frequency) (log2 ratio); higher = stronger promoter activity; settings: HEK293T; construct: no Pol-II promoter ((-)CMV library)
[2] = variants of: B1; test: tRNA 3' processing efficiency (processed reads / all reads, maximum-likelihood estimate) (fraction); higher = more efficient 3' processing; settings: HEK293T; construct: no Pol-II promoter ((-)CMV library)
[3] = variants of: B1; test: tRNA 5' processing efficiency (processed reads / all reads, maximum-likelihood estimate) (fraction); higher = more efficient 5' processing; settings: HEK293T; construct: CMV Pol-II promoter ((+)CMV library, decapped)

Variant | tRNA Pol-III promoter activity (log2) [1] | tRNA 3' processing efficiency [2] | tRNA 5' processing efficiency [3]
GTA A14T A58C | 3.22 | 0.23 | 
GAA T8G T54A | 0.712 | 0.5 | 0.5
GAA G9C T59C | 0.109 | 0.25 | 
GAA A20C A58C T59A | 3.93 | 0.67 | 
AAC G15C G17A | 4.94 | 0.62 | 
GAA A14T A58G T59A | 5.84 | 0.21 | 
GAA A14T G17A A58G | 2.24 | 0.25 | 
GTA G9A A14T A58G | 4.03 | 0.83 | 
TAA G15A T53G | 2.55 | 0.4 | 
AAA A20T C55T | 2.55 | 0.2 | 
GAA T19C A58T | 0.313 | 0.42 | 
GCC T19A A58T | 3.61 | 0.5 | 
GAA A14G A20C T53G | 5.74 | 0.57 | 
GAA G9A A58T | 0.587 | 0.52 | 
TAA T19C T54A | 4.51 | 0.67 | 
AAA T53A | 3.13 | 0.49 | 0.25
GAA G9T A14T T59G | 4.43 | 0.43 | 
GAA A14G T19A T54A | 3.81 | 0.5 | 
GAG A14G G15A A58G | 4.53 | 0.33 | 
GAA G9A T53A A58G T59C | 4.53 | 0.33 | 
CTA C55G A58G | 4.4 | 0.33 | 
CAT T19C | 5.59 | 0.14 | 
GAC A58G T59G | 3.01 | 0.27 | 

Variant | tRNA Pol-III promoter activity (log2) [1] | tRNA 3' processing efficiency [2] | tRNA 5' processing efficiency [3]
GAT T8C G17C | 2.93 | 0.2 | 
GAA A14C C55A | 0.906 | 0.4 | 
GAA G17T T53G | 0.0185 | 0.27 | 
GAG A14G | 2.25 | 0.32 | 
GAA G17T T59C | -0.744 | 0.25 | 
GAT T8C T53A | 4.8 | 0.71 | 
AAC G17A | 4.04 | 0.69 | 
GAA G9C A20T T53A A58G | 6.94 | 0.38 | 
GAA G15A G18A T19C T53A | 3.62 | 0.33 | 
GAA G9C G18A | 0.727 | 0.8 | 
AAA T59C | 3.32 | 0.57 | 
AAA G9T G17T T53A | 6.74 | 0.57 | 
CTC A14T | 3.93 | 0.25 | 
AAA C55T A58G | 3.3 | 0.17 | 
GAA T8C T19G T53G | 4.94 | 0.25 | 
TTA T19G T59G | 5.93 | 0.25 | 
GAA T19G A20T A58C | 4.2 | 0.25 | 
GGA G9A T54A | 5.11 | 0.21 | 
GAA T8G A14C G18A C55T | 6.62 | 0.17 | 
GAC A14T T19A | 2.91 | 0.29 | 
GAA G9T A14G G18A | 3.68 | 0.25 | 
GTA A58T T59C | 3 | 0.35 | 
GTA G15T | -0.23 | 0.36 | 

Variant | tRNA Pol-III promoter activity (log2) [1] | tRNA 3' processing efficiency [2] | tRNA 5' processing efficiency [3]
GAT G18A A20C | 4.61 | 0.38 | 
GAA A14G G15A A58T | 1.94 | 0.25 | 
GAA T54C C55G T59C | 4.44 | 0.38 | 
GAA G18A | -2.22 | 0.51 | 0.22
GAG T19G | 2.16 | 0.32 | 
GTA G15T T53G | 3.93 | 0.25 | 
TCC | 5.16 | 0.47 | 
GAA G15T T19G T53G | 2.92 | 0.5 | 
GTA C55T | -0.839 | 0.41 | 
TAA G9A G17T | 2.94 | 0.5 | 
GAA G15C T54A | -0.515 | 0.25 | 
CAA G9T A58T | 4 | 0.62 | 
GAT A20G | 1.58 | 0.45 | 0.29
TAA A20T | -0.993 | 0.4 | 0.33
GTA A14G T54A | 2.43 | 0.5 | 
GAA G15C G17T A58G | 2.04 | 0.75 | 
GAC G17T A20T A58G | 6.25 | 0.2 | 
CTA G15A | 3.93 | 0.6 | 
GAT A14C | 2.38 | 0.3 | 
GCA T19A | 0.849 | 0.36 | 
TAA G9T T54A | 4.19 | 0.75 | 
GTT T19A | 3.13 | 0.13 | 
GAC A14G | 1.64 | 0.38 | 0.25

Variant | tRNA Pol-III promoter activity (log2) [1] | tRNA 3' processing efficiency [2] | tRNA 5' processing efficiency [3]
GAA G9T A20T | -0.193 | 0.42 | 
AAA A20T | 0.78 | 0.67 | 0.29
GTA G17C T59G | 4.94 | 0.25 | 
GTA T8G A14G | 2.76 | 0.25 | 
GAG G17C G18A T19C | 6.36 | 0.4 | 
CAA A14T T19G A58G | 5.2 | 0.56 | 
GTT G9T | 2.55 | 0.2 | 
GAA T54A A58G T59A | 3.61 | 0.25 | 
GAA T54C C55T | 0.169 | 0.67 | 
AAT G9A A58G | 6.26 | 0.07 | 
TAA T8C C55T | 6.39 | 0.45 | 
AAA A14T T53G | 4.51 | 0.33 | 0.4
GTA A14T T53A | 3.71 | 0.5 | 
GAA T53A A58G | 1.7 | 0.43 | 
AAA A14C A58T | 2.04 | 0.25 | 0.33
CAA A14T T59G | 4.47 | 0.38 | 
GTA G9A G15C | 5.28 | 0.26 | 
GCA A14C A58T | 6.51 | 0.33 | 
AAA T53A A58G | 7.08 | 0.86 | 
GAA G9A A14C T59A | 7.93 | 0.06 | 
GAA A14G T19G | -0.529 | 0.32 | 
GAT T8C A14G T59C | 4.93 | 0.25 | 
GAT G9T A14G G15A | 6.03 | 0.34 | 

At a glance, part of the list above:
Variant | tRNA Pol-III promoter activity (log2) [1] | tRNA 3' processing efficiency [2] | tRNA 5' processing efficiency [3]
GAA G9A A14C T59A | 7.93 | 0.06 | 
GAA A14G T19G | -0.529 | 0.32 | 

The results go on:

Variant | tRNA Pol-III promoter activity (log2) [1] | tRNA 3' processing efficiency [2] | tRNA 5' processing efficiency [3]
GAA G9A G17T T19A C55T | 7.36 | 0.2 | 
GAA G15A A58C T59A | 4.08 | 0.42 | 
CAG G15A | 4.75 | 0.57 | 
AGA T54A | 8.49 | 0.32 | 
GAC A20C A58G | 5.03 | 0.5 | 
AAA G9A C55A | 1.8 | 0.2 | 
TAA C55T T59A | 2.13 | 0.25 | 
GGA G18A C55A | 3.08 | 0.2 | 
GAT A14C G15C G18T | 3.71 | 0.33 | 
GAT T19G A58C | 3.13 | 0.25 | 
GCA G17C | 0.0342 | 0.25 | 
GAC G15A G17A | 4.18 | 0.08 | 
TAG A58C | 3.85 | 0.73 | 0.2
GAA T8C T19A A58G | 6.53 | 0.5 | 
GAA A14G G17A | -0.32 | 0.33 | 
GAA A14G A58G T59G | 4.25 | 0.28 | 
GAA A14C G15C T59C | 3.93 | 0.2 | 
GAA T8C T19A T59C | 5.36 | 0.4 | 
GAA G50T | 5.34 | 0.41 | 
TTA G9A | 4.48 | 0.38 | 
GGG A14T T53G | 3.94 | 0.5 | 
